Experimental data reported in article PMC3406032, “Tristetraprolin Inhibits Poly(A)-Tail Synthesis in Nuclear mRNA that Contains AU-Rich Elements by Interacting with Poly(A)-Binding Protein Nuclear 1” (PLoS ONE, 2012).
No constants are given. Whether binding was seen depends on the method and setting. For some assays here: Binding can be weak; no strength is given. Tags and fused reporters may be left off the sequences shown.

Key:
[1] = molecular target: T1, maltose-binding protein-TTP-(His)6 (mouse) (UniProt P22893); test: phage display biopanning; 10 µg MBP-TTP-(His)6 immobilised on 20 µl Ni-NTA resin; amplified T7 phage library (RAW264.7 cDNA) added overnight at 4°C; 50 mM Tris-Cl pH 7.5, 150 mM NaCl, 0.1% Tween-20; 10 rounds; clones of rounds 4, 9 and 10 sequenced; only the target purified
T1 sequence: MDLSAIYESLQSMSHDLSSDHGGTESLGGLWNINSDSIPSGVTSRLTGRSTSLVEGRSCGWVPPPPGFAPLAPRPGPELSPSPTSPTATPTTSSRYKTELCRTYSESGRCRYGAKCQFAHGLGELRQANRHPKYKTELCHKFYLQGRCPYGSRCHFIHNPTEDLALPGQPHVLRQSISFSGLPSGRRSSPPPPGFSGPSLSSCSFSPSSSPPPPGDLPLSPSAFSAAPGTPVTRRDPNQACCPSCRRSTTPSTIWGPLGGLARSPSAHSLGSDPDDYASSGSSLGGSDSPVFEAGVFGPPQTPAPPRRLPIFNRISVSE

MBP-PABPN1@1-245 (mouse) = test: pull-down; MBP-PABPN1-HA-(His)6, a deletion mutant of it or MBP (1 µg) immobilised on amylose resin; 1 µg target protein added overnight at 4°C; 20 mM Tris-Cl pH 7.0, 150 mM NaCl, 0.1% NP-40, 5 mM MgCl2, 1 mM DTT; Coomassie Blue and western blot (anti-GST, anti-myc); both purified
MBP-PABPN1@1-271 (mouse) = test: as above
[2] = molecular target: MBP-PABPN1@144-245 (mouse); test: as above
[3] = molecular target: MBP-PABPN1@144-302 (mouse); test: as above
[4] = molecular target: MBP-PABPN1@203-271 (mouse); test: as above
[5] = molecular target: MBP-PABPN1@203-302 (mouse); test: as above
[6] = molecular target: MBP-PABPN1@246-302 (mouse); test: as above

Molecule: PABPN1 residues 131-302, displayed on T7 phage (mouse) (domain or fragment)
- binding [1]: binds

B1: N-terminally glutathione S-transferase-tagged wild-type TTP (natural protein, mouse, UniProt P22893 2-319, looked up)
chain: DLSAIYESLQSMSHDLSSDHGGTESLGGLWNINSDSIPSGVTSRLTGRSTSLVEGRSCGWVPPPPGFAPLAPRPGPELSPSPTSPTATPTTSSRYKTELCRTYSESGRCRYGAKCQFAHGLGELRQANRHPKYKTELCHKFYLQGRCPYGSRCHFIHNPTEDLALPGQPHVLRQSISFSGLPSGRRSSPPPPGFSGPSLSSCSFSPSSSPPPPGDLPLSPSAFSAAPGTPVTRRDPNQACCPSCRRSTTPSTIWGPLGGLARSPSAHSLGSDPDDYASSGSSLGGSDSPVFEAGVFGPPQTPAPPRRLPIFNRISVSE
notes: also called WT GST-TTP; GST-TTP; source: E. coli STBL2 or Rosetta(DE3)pLacI, purified (glutathione-agarose); not shown: GST, N-terminal, kept
- binding (MBP-PABPN1@1-245 (mouse)): no binding (tested: 1 µg)
- binding (MBP-PABPN1@1-271 (mouse)): no binding (tested: 1 µg)
- binding [2]: no binding (tested: 1 µg)
- binding [3]: binds
- binding [4]: binds
- binding [5]: binds
- binding [6]: binds
